The values that follow come from article PMC10983951.

Sequences of proteins named here, by UniProt entry; tags and fusion partners are left off.
UniProt A0A125YP06: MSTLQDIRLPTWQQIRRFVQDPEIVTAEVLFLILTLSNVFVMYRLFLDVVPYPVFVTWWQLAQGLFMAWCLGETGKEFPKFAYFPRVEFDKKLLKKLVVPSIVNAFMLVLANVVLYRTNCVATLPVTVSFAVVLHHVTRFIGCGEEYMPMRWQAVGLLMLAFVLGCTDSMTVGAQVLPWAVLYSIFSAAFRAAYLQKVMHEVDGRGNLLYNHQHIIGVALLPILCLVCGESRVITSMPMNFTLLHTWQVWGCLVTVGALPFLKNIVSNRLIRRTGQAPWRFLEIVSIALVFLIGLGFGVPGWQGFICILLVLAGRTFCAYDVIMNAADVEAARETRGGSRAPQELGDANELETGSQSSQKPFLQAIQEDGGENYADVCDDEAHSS

The target of the test is FLAG-Myosin-A WT (complement) (Toxoplasma gondii) (UniProt O00934). Description: proximity labelling; Biotinylation by Antibody Recognition (BAR): fixed, permeabilized FLAG-MyoA parasites, primary antibody and HRP-conjugated secondary antibody, biotin-phenol and hydrogen peroxide; streptavidin beads, mass spectrometry; parental strain as control.

Results are given in words; binding and its absence hold for the method and conditions named. In cells and extracts the contact can be indirect. Here binding means that the protein was enriched with, or labelled near, the bait; the list need not be complete.

In the case of GAP40 (from UniProt A0A125YP06 1-385), the binding result is recorded as “binds”. For “calcium-dependent protein kinase CDPK2a (from UniProt S8F5F3) (enzyme)”, the binding entry is on record as “binds”.
